Laboratory results: the supplement of paper PMC11006884
The list shows a part of the results, in another mix than the full data.

Chains of the proteins cited; added tags and fusions are not shown. Lines headed by an entry give the natural chain unless they say otherwise; changes in a name come on top.
UniProt P54136: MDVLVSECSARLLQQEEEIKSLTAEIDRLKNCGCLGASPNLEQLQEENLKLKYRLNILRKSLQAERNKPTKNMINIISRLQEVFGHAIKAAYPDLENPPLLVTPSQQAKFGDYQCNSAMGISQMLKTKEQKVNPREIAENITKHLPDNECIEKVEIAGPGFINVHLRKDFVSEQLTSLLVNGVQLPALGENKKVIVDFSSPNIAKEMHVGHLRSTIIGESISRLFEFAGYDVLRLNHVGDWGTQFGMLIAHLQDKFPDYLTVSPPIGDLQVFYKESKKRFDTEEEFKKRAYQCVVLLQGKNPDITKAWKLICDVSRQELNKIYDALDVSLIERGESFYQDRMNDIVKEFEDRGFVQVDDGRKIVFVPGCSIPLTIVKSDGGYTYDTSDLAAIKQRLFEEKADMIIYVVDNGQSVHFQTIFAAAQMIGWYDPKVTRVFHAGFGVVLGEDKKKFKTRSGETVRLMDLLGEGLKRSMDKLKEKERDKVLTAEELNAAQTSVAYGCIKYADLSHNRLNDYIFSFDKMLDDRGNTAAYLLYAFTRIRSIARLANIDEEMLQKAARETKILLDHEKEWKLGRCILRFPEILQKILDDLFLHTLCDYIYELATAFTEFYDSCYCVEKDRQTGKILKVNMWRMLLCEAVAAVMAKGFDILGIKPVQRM
UniProt P56192: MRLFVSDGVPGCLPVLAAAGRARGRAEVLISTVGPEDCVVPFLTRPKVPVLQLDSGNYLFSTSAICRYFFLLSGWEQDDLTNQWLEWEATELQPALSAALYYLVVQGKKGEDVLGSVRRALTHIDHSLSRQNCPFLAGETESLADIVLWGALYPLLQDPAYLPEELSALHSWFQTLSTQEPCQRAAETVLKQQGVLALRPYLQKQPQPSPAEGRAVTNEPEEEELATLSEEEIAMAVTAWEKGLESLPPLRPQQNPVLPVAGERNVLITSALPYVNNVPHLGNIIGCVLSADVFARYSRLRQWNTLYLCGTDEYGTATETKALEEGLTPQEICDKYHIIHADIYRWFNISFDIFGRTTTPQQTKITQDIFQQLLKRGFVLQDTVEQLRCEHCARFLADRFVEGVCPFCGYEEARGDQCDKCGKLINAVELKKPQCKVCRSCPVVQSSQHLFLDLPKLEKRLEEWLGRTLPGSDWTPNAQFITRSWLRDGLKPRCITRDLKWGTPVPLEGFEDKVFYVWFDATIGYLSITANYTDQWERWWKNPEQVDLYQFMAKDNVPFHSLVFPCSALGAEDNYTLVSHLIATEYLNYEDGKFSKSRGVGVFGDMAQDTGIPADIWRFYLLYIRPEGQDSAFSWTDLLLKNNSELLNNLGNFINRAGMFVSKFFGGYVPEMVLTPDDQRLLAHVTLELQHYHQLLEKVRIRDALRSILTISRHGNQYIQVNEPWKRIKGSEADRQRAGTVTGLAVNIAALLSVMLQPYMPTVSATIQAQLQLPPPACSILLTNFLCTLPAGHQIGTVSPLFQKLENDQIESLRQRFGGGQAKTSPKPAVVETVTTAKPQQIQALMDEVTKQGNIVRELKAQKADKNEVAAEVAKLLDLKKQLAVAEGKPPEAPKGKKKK
UniProt P53384: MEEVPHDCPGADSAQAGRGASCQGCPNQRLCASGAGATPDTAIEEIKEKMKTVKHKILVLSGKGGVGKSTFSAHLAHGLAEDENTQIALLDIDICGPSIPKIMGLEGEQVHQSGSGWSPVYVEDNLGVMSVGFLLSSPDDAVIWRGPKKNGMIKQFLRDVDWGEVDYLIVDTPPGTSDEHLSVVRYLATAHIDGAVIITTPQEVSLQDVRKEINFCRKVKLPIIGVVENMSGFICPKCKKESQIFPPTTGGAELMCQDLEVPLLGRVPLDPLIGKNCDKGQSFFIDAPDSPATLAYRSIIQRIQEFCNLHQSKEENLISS
UniProt P54132: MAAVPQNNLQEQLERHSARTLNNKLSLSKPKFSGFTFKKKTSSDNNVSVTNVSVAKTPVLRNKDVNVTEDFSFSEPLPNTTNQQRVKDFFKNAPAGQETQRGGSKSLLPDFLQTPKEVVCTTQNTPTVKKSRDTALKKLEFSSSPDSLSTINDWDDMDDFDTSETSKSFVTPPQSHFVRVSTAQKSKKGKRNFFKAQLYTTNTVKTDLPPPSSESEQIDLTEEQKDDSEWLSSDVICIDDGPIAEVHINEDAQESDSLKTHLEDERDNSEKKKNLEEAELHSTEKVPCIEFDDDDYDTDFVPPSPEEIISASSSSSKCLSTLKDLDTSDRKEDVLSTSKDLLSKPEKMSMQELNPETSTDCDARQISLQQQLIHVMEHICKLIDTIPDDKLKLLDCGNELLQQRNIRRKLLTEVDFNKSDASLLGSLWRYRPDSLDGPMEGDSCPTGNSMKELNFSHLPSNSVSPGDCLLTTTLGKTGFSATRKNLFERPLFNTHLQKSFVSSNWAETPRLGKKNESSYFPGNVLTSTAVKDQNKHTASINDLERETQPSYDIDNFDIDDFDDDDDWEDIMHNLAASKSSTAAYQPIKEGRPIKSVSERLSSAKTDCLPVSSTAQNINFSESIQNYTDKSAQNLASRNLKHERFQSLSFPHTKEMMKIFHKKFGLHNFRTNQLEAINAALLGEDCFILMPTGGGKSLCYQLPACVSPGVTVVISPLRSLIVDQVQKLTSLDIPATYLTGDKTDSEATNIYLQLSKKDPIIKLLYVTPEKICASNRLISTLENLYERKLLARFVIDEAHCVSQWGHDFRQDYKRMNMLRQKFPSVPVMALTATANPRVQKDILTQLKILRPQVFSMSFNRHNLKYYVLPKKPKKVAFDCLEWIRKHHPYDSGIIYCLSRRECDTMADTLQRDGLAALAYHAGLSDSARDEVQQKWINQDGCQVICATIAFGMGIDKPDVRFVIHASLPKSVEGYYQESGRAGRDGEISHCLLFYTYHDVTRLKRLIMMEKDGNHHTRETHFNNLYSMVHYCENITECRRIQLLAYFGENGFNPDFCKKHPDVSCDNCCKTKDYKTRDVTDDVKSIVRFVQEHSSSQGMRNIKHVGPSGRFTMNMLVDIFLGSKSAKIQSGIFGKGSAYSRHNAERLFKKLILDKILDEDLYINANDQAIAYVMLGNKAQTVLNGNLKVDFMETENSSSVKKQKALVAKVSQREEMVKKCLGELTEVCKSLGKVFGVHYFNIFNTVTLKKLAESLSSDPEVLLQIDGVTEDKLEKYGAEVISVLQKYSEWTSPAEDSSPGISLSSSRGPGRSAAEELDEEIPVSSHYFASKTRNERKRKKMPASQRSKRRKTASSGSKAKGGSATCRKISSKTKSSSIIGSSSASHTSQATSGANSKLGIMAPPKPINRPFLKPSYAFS
UniProt P52272: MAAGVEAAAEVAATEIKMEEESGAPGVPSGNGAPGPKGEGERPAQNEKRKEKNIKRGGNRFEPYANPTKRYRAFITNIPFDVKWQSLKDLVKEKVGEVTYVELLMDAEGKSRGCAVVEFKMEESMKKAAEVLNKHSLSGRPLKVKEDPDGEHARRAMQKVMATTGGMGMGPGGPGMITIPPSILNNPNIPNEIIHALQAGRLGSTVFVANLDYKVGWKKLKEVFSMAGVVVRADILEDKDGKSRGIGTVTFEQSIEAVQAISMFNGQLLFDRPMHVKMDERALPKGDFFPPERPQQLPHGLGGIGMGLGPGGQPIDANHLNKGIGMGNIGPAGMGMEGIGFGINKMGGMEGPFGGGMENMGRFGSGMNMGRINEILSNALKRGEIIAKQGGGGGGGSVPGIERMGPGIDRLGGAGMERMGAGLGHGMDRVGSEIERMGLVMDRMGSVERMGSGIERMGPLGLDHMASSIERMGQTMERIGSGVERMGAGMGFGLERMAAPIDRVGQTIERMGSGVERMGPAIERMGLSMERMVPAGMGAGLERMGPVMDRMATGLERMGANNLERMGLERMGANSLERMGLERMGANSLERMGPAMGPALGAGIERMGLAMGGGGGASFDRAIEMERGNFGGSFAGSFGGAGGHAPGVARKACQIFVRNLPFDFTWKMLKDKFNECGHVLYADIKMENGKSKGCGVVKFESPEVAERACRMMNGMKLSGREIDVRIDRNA
UniProt P55199: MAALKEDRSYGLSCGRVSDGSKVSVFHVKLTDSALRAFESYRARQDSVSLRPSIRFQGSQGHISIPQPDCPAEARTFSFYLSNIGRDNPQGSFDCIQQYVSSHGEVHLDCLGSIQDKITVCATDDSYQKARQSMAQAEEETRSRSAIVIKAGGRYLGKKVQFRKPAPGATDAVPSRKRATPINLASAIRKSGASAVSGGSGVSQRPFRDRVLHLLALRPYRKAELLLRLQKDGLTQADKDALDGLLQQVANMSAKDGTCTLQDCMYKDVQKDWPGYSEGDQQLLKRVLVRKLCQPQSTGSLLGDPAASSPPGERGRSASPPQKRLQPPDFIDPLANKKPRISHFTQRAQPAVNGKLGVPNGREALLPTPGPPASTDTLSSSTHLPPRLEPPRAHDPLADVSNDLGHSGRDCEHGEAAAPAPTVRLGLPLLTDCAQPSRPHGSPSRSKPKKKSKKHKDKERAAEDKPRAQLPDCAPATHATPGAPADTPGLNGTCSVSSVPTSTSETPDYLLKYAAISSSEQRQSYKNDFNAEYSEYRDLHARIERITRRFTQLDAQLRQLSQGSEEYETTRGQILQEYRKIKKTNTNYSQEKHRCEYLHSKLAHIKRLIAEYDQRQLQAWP
UniProt P61970, whole entry: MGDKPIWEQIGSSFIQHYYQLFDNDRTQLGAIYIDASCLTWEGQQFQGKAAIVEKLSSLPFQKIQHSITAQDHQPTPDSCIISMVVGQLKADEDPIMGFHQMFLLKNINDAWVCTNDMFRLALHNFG
UniProt P55060: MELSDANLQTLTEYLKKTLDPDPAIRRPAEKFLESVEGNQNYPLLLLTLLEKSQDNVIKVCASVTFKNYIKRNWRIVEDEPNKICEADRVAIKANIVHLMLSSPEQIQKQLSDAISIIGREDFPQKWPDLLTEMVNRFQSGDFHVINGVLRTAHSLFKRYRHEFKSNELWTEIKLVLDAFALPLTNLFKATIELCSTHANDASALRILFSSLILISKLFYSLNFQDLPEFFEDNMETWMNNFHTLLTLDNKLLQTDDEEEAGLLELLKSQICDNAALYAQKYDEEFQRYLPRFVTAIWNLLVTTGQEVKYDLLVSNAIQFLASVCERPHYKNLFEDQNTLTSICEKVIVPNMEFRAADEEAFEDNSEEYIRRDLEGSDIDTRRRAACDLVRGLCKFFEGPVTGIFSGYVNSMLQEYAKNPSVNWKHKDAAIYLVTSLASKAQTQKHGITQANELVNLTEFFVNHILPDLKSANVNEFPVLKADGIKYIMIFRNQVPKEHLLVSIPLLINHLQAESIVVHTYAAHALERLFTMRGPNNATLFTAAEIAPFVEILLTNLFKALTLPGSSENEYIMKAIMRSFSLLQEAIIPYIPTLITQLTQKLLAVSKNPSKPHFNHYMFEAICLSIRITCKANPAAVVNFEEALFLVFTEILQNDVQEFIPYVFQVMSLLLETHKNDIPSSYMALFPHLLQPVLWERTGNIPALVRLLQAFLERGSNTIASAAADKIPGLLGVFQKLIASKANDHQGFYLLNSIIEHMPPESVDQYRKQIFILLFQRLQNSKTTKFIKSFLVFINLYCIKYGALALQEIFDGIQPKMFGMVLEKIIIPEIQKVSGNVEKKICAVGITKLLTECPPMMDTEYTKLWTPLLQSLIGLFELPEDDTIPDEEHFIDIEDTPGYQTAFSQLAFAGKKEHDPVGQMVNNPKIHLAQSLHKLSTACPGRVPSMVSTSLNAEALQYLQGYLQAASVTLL

Compound: COC(=O)C#Cc1ccccc1 [methyl 3-phenylpropiolate]
Assay: log2 ratio of iodoacetamide-alkyne labeling of the cysteine site, DMSO over compound (competition); higher = stronger covalent engagement of the cysteine by the compound, active = 1 or more
Settings: 500 µM; treatment time 1 h; system: HEK293T cell lysate
Procedure, shortened: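 HEK293T lysate at 2 mg/mL was treated with vehicle or electrophile (500 µM) for 1 h at ambient temperature, then labelled with iodoacetamide alkyne (1 h), clicked to sCIP-TMT reagents, pooled, digested with trypsin overnight at 37 °C, enriched on streptavidin and eluted with acid. Peptides were analysed by Orbitrap Eclipse LC-MS/MS with FAIMS and quantified in FragPipe, using duplicate channels and three replicates, with cysteines quantified in only one replicate excluded. The log2 competition ratio for each cysteine is the mean control-channel reporter intensity divided by the mean compound-channel reporter intensity.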

Row | Target | log2 ratio of iodoacetamide-alkyne labeling
1 | RARS C34 (UniProt P54136) | inactive: 0.605
2 | MARS C38 (UniProt P56192) | inactive: 0.14
3 | CTBP2 C60 (UniProt P56545) | inactive: 0.0719
4 | NUBP1 C25 (UniProt P53384) | active: 2.24
5 | BLM C685 (UniProt P54132) | inactive: 0.197
6 | HNRNPM C694 (UniProt P52272) | inactive: 0.0717
7 | ELL C494 (UniProt P55199) | inactive: 0.872
8 | UniProt P61970_C114 | inactive: 0.112
9 | CSE1L C842 (UniProt P55060) | inactive: 0.747
10 | UniProt P60709_C257 | inactive: 0.0972
11 | BLM C704 (UniProt P54132) | inactive: 0.6
12 | UniProt P61221_C201 | inactive: 0.034
13 | NUBP1 C8 (UniProt P53384) | inactive: 0.762
14 | RPS3A C201 (UniProt P61247) | inactive: 0.0769
15 | METAP1 C9 (UniProt P53582) | inactive: 0.325

Individual results from the results shown.
BLM C685 (UniProt P54132) – log2 ratio of iodoacetamide-alkyne labeling: inactive: 0.197
NUBP1 C8 (UniProt P53384) – log2 ratio of iodoacetamide-alkyne labeling: inactive: 0.762
